No constants are given. Whether binding was seen depends on the method and setting. In cells and extracts the contact can be indirect. Here binding means that the protein was enriched with, or labelled near, the bait; the list need not be complete.
Target: endogenous GFP-tagged HDAC4 (PITCh knock-in) (human (endogenous in SK-LMS-1)) (UniProt P56524)
Assay: affinity purification with mass spectrometry; 800 μg lysate of SK-LMS-1 HDAC4/GFP-PITCH cells on GFP-Trap magnetic agarose beads overnight, V5-Trap beads as control; two independent biological replicates (Figure 6I)

Amino acid sequences for entries named in this document (tags omitted).
UniProt P56524: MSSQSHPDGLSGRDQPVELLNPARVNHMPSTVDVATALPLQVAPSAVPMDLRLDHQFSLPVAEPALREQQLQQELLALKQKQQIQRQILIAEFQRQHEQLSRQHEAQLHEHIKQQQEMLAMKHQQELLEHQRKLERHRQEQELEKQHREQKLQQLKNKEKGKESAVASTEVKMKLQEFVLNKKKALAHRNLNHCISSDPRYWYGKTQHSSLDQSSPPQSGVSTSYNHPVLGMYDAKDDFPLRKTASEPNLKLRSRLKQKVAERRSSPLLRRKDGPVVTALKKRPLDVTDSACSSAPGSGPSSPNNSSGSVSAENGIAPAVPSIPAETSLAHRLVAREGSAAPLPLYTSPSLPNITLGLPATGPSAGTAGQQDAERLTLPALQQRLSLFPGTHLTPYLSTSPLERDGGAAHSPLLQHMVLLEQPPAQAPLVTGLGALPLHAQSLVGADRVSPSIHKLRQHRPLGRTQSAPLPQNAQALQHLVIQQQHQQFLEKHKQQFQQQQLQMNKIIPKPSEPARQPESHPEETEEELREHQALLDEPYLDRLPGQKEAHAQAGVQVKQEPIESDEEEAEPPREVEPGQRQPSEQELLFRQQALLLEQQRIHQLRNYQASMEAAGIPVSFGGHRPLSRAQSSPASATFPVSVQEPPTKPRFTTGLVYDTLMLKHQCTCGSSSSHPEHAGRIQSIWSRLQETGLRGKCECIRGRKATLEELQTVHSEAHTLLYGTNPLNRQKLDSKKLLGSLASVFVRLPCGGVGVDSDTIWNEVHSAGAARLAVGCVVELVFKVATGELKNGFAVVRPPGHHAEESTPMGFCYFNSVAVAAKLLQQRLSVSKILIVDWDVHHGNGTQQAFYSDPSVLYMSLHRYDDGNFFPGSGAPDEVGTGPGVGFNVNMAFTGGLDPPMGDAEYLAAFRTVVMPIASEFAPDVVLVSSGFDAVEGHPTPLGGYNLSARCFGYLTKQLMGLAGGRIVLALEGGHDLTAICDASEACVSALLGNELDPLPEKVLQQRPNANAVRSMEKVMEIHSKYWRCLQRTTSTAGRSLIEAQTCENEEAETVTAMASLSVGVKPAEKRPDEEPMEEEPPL
UniProt P63151: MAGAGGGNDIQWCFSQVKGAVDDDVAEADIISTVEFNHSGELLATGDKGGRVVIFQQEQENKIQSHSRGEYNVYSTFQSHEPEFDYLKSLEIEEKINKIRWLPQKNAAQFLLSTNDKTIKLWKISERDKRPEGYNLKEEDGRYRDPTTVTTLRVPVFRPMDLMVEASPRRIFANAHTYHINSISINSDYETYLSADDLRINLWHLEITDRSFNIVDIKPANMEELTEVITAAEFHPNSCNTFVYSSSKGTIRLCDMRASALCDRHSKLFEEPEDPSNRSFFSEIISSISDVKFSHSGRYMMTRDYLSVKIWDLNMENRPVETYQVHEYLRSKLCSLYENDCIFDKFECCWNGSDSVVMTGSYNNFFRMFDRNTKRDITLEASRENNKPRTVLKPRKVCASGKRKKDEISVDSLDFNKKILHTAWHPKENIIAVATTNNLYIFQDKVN
UniProt P26599: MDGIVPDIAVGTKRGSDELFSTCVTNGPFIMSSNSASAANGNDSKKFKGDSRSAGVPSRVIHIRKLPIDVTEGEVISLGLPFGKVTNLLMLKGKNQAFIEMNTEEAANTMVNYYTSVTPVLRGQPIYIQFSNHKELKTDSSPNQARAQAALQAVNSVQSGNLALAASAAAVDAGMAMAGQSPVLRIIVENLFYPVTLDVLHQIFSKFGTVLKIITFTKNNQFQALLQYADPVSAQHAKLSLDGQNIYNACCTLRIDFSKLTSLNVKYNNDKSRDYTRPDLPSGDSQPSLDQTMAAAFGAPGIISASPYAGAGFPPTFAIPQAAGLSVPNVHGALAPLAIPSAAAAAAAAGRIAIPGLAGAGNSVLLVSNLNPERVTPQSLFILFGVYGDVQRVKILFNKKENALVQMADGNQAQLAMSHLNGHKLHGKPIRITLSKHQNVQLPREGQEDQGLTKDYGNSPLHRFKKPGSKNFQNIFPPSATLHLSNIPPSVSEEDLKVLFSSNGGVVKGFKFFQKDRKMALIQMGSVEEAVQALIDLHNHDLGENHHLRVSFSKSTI
UniProt Q92769: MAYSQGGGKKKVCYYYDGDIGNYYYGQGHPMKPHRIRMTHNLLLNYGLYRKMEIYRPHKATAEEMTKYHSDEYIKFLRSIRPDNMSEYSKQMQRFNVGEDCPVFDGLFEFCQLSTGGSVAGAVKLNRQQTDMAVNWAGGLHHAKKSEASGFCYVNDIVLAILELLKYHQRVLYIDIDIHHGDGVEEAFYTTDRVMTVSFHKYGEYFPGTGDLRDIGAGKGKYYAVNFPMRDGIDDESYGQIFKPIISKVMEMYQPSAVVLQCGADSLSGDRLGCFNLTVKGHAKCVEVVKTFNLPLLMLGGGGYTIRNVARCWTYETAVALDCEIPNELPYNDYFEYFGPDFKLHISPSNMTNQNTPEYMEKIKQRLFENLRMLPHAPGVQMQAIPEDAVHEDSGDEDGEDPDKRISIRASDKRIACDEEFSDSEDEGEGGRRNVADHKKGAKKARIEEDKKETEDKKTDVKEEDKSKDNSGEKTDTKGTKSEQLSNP
UniProt Q13555: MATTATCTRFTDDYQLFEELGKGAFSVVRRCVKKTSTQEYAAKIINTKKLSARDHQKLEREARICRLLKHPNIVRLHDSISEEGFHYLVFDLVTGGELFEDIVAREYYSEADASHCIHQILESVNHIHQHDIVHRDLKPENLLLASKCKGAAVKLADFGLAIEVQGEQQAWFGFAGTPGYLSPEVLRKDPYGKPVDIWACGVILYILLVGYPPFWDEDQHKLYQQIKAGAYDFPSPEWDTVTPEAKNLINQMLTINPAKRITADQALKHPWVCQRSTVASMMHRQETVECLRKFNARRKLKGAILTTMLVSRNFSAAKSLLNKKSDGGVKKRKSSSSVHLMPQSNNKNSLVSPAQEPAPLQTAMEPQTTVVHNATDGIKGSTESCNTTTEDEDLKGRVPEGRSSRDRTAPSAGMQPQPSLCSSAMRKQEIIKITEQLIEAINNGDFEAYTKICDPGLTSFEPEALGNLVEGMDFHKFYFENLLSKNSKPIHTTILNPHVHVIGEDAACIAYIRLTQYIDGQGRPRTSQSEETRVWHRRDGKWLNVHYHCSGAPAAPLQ
UniProt O15379: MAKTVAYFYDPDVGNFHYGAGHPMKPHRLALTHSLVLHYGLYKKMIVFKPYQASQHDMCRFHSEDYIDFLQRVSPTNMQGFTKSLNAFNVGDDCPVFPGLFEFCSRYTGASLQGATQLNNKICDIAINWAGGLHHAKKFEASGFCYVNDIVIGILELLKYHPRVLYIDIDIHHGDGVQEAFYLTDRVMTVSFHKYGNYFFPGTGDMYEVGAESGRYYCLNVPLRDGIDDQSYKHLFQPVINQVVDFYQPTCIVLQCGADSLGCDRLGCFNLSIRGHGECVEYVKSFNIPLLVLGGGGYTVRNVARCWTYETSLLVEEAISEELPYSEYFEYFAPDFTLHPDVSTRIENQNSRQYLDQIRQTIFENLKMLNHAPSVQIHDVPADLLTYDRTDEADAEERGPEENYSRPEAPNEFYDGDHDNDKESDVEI

Row | binding | Substance
1 | binds | protein phosphatase 2 regulatory subunit Bα (PPP2R2A) (from UniProt P63151 1-447)
2 | binds | PTBP1 (from UniProt P26599 1-557)
3 | binds | HDAC2 (endogenous, SK-LMS-1) (from UniProt Q92769 1-488)
4 | binds | calcium/calmodulin-dependent protein kinase II gamma (CAMK2G) (from UniProt Q13555 1-558)
5 | binds | HDAC3 (endogenous, SK-LMS-1) (from UniProt O15379 1-428)
